## Percent effect of library compounds

Source: ChEMBL document CHEMBL3988442, “University of Dundee, Small-Polar-MMV Screening Library” (2021).

The filed quantity is “Percent Effect” (%). The record does not define 0% and 100%; most values in the screen are far below 50% and negative numbers occur (in some assays of this library far below -100). The compounds are a random part of those screened. Two or more numbers in one place are separate tests of the same structure; such repeats can differ widely.

A: 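Growth of Mycobacterium tuberculosis over 4 days (cholesterol / DPPC medium with tyloxapol); the read-out is not stated. Concentration: 50 µM. Higher reads as more growth inhibition (inferred: compounds with an IC50 in retests scored well above the rest). Size under these conditions: about 69,000 compounds, about 370 of them at 50% or above in at least one test.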
B: 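Growth of Mycobacterium tuberculosis over 3 days (7H9 medium with glucose and tyloxapol); the read-out is not stated. Concentration: 50 µM. Higher reads as more growth inhibition (inferred: compounds with an IC50 in retests scored well above the rest). Of about 69,000 compounds tested this way, about 760 (1.1%) reached 50% or more in at least one test.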

- O=C(c1c[nH]cn1)N1CCC(n2cc(-c3ccsc3)nn2)CC1 | A: 4.727%; B: 16.16%
- CCN(Cc1cnn(C)c1)C[C@H]1CC[C@@H](Cc2ccc(C)nc2)O1 | A: -10.87%; B: 4.37%
- CN(Cc1noc2c1CCCC2)C(=O)Nc1ccc2oc(=O)n(C)c2c1 | A: -16.8%; B: 31.8%
- c1cnn(CC2CCCCN2Cc2cn3ccsc3n2)c1 (stereo unspecified) | A: 16.3%; B: 9.674%
- O=C(O)c1ccccc1-c1ccc(CN2CC(O)C2)cc1 | A: -1.693%; B: 13.07%
- CCn1c(CC2CCN(S(=O)(=O)N3CCCCC3)CC2)nn(C)c1=O | A: 11.31%; B: -13.95%
- CCOc1ccc(CN2C(=O)CC(C)(C)C2=O)nc1 | A: -14.3%; B: 1.027% & -15.76%
- Cc1ccc(S(=O)(=O)NCc2[nH]ncc2Br)cc1F | A: 9.624%; B: 14.12%
- Cc1cc(=O)[nH]c(-n2nc(-c3cccs3)cc2N)n1 | A: 13.82%; B: 20.57%
- Cc1ccc2c(c1)CCC2NC(=O)N1CCC(C(N)=O)CC1 (stereo unspecified) | A: -4.265%; B: 39.21%
- Cc1noc(C)c1CN(C)C(=O)c1ccc(C(N)=O)nc1 | A: -7.367%; B: 17.46%
- Cc1ccc(C(=O)N2CCC3(CC2)CN(c2ccccn2)CCO3)cc1.O=C(O)C(F)(F)F | A: -26%; B: 13.54%
- [H][C@@]12CCNC[C@]1([H])N(C(=O)C1CCCC1)C2 | A: 8.449%; B: -26.05%
- Cc1nc2c(c(NCc3ccccc3)n1)CCN(C(=O)C1CCC1)CC2 | A: -9.838%; B: 17.77%
- O=S1(=O)CCC(S(=O)(=O)c2cccc(S(=O)(=O)N3CCCCCC3)c2)C1 (stereo unspecified) | A: -6.473%; B: -4.272%
- Cc1noc(C)c1C(=O)NCC(c1ccc(F)cc1)N(C)C (stereo unspecified) | A: -14.34%; B: 5.392%
- O=C(O)C(F)(F)F.O=C(O)C(F)(F)F.c1ccc(CN2CCc3nnc(CN4CCCCC4)n3CC2)nc1 | A: -22.93%; B: -23.57%
- O=C(c1cn(Cc2ccc(Cl)cc2)nn1)N1CCCO1 | A: 28.51%; B: 38.43%
- CCc1nc(CN(C)C2CCN(CCS(C)(=O)=O)C2)no1 (stereo unspecified) | A: -26.11%; B: -12.61%
- CC(C)c1csc(C2CCCN(C(=O)c3ccc[nH]3)C2)n1 (stereo unspecified) | A: 11.25%; B: 21.13% & 21.61%
- Cc1ccc(Cl)c(NC(=O)c2cccc(CN3CC[C@H](O)C3)c2)c1 | A: 22.48%; B: 19.41% & -8.458%
- COCCN1CCC2(CCN(c3ncccn3)CC2)C1=O.O=C(O)C(F)(F)F | A: -4.427% & -6.957%; B: -7.146%
- CC1(C(=O)NC2CCCC2)CCCN(c2ncccn2)C1 (stereo unspecified) | A: -0.04681%; B: -19.43%
- O=C(CCc1ccc(Cl)s1)N1CCCC(N2CCNC2=O)C1 (stereo unspecified) | A: 32.62%; B: -2.35%
- CC(C(=O)NCC(C)(C)c1ccc2c(c1)OCO2)n1ccnc1 (stereo unspecified) | A: -20.01%; B: 1.304%
- Cc1nc2ccccc2nc1CN1CCCCC1Cn1cccn1 (stereo unspecified) | A: 8.583%; B: -8.067%
- [H][C@]12CN(C(=O)c3cc(C)oc3C)C[C@@]1([H])OCCN(S(C)(=O)=O)C2 | A: -7.909%; B: -7.014% & -18.32%
- O=S(=O)(c1cccnc1)N1CCCCC1CCN1CCOCC1 (stereo unspecified) | A: -21.43%; B: -18.47%
- CCOc1ncccc1C(=O)N1CC=C(c2ccc(O)cc2)CC1 | A: -21.32%; B: -1.031%
- Cc1cc(N2CCCC2c2cccnc2)nc(C)n1 (stereo unspecified) | A: -14.04%; B: -0.5518% & -14.38%
- [H][C@@]12CCN(c3ccc(C)nn3)C[C@]1(C(=O)NCC1CC1)CCO2 | A: 5.174%; B: 3.609%
- CN(C)c1nc2c(c(=O)[nH]1)CCN(C(=O)c1ccc(=O)[nH]c1)C2 | A: -2.428%; B: 4.055%
- O=C(O)C(F)(F)F.O=C(O)C(F)(F)F.[H][C@@]12CCCO[C@]1([H])[C@H](N(C)Cc1ccco1)CN2Cc1ccco1 | A: -17.42%; B: -7.516%
- O=C(C1CC(=O)N(c2n[nH]c3cc(Br)ccc23)C1)N1CCCC1 (stereo unspecified) | A: 2.662%; B: 23.49%
- NC(=O)c1cnn2c1NCC(CNCCCOc1ccccc1F)C2 (stereo unspecified) | A: 1.067%; B: -17.15%
- CCOC(=O)C1(O)CCN(C(=O)Nc2ccc(CC)cc2)CC1 | A: -0.8283%; B: 11.45%
- O=C(O)C(F)(F)F.c1ccc(N2CCCC3(CCN(Cc4cccs4)C3)C2)nc1 (stereo unspecified) | A: 1.122%; B: -9.564%
- Cc1nnc(C(NS(=O)(=O)c2cc(C#N)ccc2C)C(C)C)[nH]1 (stereo unspecified) | A: -4.924%; B: -26.14%
- Cc1nc(CN2CCN(Cc3cc4n(n3)CCNC4)CC2)cs1 | A: -56.41%; B: -32.14%
- COc1cc(C(=O)Nc2nc(C)no2)cc(Cl)c1OC | A: 12.43%; B: 58.42%
- CC(=O)Nc1nc(C(=O)NCc2ccc(N3CCCCCC3)nc2)cs1 | A: -12.4%; B: -24.17%
- CCNC(=O)N1CCC(Cc2cccc(C(N)=O)c2)C1 (stereo unspecified) | A: -6.108% & -7.244%; B: -5.702%
- CNC(C(=O)OC)c1cc(F)ccc1F.Cl (stereo unspecified) | A: 23.92%; B: -18.38%
- [H][C@@]12COC[C@]1(c1nc(C)no1)CN(C(=O)COCC)C2 | A: 1.115%; B: 12.29%
- O=C(CCOCC(F)(F)F)N1CCCC(n2ccnc2)C1 (stereo unspecified) | A: -2.767%; B: -8.876%
- O=C(O)C(F)(F)F.[H][C@@]12CN(CC)C[C@]1([H])[C@@H](OC)CCN2S(=O)(=O)c1ccccc1F | A: -1.681%; B: 27.55%

Repeated from the top, 5 entries:

O=C(c1c[nH]cn1)N1CCC(n2cc(-c3ccsc3)nn2)CC1 gave A: 4.727%; B: 16.16%.
CCN(Cc1cnn(C)c1)C[C@H]1CC[C@@H](Cc2ccc(C)nc2)O1 gave A: -10.87%; B: 4.37%.
CN(Cc1noc2c1CCCC2)C(=O)Nc1ccc2oc(=O)n(C)c2c1 gave A: -16.8%; B: 31.8%.
c1cnn(CC2CCCCN2Cc2cn3ccsc3n2)c1 (stereo unspecified) gave A: 16.3%; B: 9.674%.
O=C(O)c1ccccc1-c1ccc(CN2CC(O)C2)cc1 gave A: -1.693%; B: 13.07%.